This data set is described as follows: general procedure: Boc solid-phase peptide synthesis; Boc-Leu-phenylacetamidomethyl (PAM)-resin, 0.33 mmol/g; BOP. The conditions noted are these: coupling step.

GRF(1-44)-NH2: the step yield runs as follows: (by analytical HPLC at 3.5 h) 60%; (on GRF(1-43)-OH) 37%.

These data come from patent publication US5563044A (Hoffmann-La Roche Inc., priority 1995, dated 1996).
